Results published in publication PMC10535004, “Investigation of Peptides for Molecular Recognition of C-Reactive Protein–Theoretical and Experimental Studies” (Analytical Chemistry, 2023).
These are yes or no findings as the source states them, for the method shown. Some results given as binding are weak or reduced against the parent protein; the word gives no strength.

T1: P3 peptide
T1 sequence (peptide): VHWDFRQWWQPS

T2: C-reactive protein (human, UniProt P02741 19-224)
T2 construct: C-reactive protein (CRP), cyclic pentamer of five identical, noncovalently connected subunits of 206 amino acids each (printed); PDB 3PVO was used only for docking; also called CRP
T2 sequence (looked up): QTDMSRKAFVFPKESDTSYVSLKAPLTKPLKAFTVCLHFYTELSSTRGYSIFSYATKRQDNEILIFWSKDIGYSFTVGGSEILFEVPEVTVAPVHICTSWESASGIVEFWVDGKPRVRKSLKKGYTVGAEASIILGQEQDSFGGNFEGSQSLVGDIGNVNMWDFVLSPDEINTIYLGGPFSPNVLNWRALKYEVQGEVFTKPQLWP

B1: P2 peptide (peptide)
peptide: GGSDPEGMQGNY
notes: 12-mer identified by phage display against CRP; Immobilised on gold plates for PM-IRRAS; method is in the Supporting Information; also called peptide P2; source: synthetic peptide

Key:
P3 peptide = target: T1, P3 peptide; assay: differential pulse voltammetry (electrochemical); P3 peptide covalently immobilised on TESPSA-silanised ITO, blocked with 1% BSA; 20 uL protein in PBS pH 7.4 for 30 min at room temperature; 1 mM Fc(CH2OH)2 in PBS as redox probe; drop of peak current fitted with the Hill equation, Kd = KA^n; both purified
C-reactive protein [1] = target: T2, C-reactive protein; assay: plaque test (ratio of eluted to added phages, O/I); phage clones on CRP; binding efficiency expressed as the ratio of the eluted to added phages; details in the Supporting Information
C-reactive protein [2] = target: T2, C-reactive protein; assay: ELISA; phage clones on CRP, phages detected by the enzymatic reaction of tagged anti-M13 antibodies, absorbance at 450 nm, compared with WT phage

Molecule | binding (P3 peptide) | binding (C-reactive protein [1]) | binding (C-reactive protein [2])
troponin T (from UniProt P45379 1-298) | no binding (tested: 2.5 μg mL^–1) |  | 
B1 |  | binds | binds weakly
